For orientation: AC50 means the midpoint of the concentration-response curve, whichever way the signal moves.

AC50 data for 37 compounds are collected here from PubChem BioAssay AID1487 (National Center for Advancing Translational Sciences (NCATS), 2009).

This is one part of the list. These are further read-outs of the screen, such as a control signal, another cell line or another target. No call is given for them. Compounds called inactive in the main read-out are mostly missing here. The note in brackets gives the kind of curve behind each potency; many fits are weak.

This assay can be described thus: qHTS Assay for Modulators of Lamin A Splicing. The conditions noted are these: HeLa LMNA splicing GFP/RFP minigene ratio, 48 h. The method in brief: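 S3 HeLa cells stably expressing lamin A-EGFP splicing minigene plus DsRed2, 600 cells/well, 48 h compound exposure at 37C. Laser-scanning cytometry; analysed as GFP (500-530 nm)/RFP (575-640 nm) total intensity ratio; 0.5% DMSO vehicle.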
For orientation: qHTS replaces the single test concentration by a dilution series.

The mark [1] stands for this setting: measured here: RFP viability control channel.
[2] abbreviates: measured here: GFP splicing reporter channel.

Take `COc1ccc(NC(=S)Nc2ncccc2C)cc1OC`: the AC50 under setting [1] is 0.00316 µM [falling, full curve, poor fit].

Regarding `CCOc1ccccc1NC(=S)Nc1ncccc1C`, the concentration at half-maximal activity (AC50) under setting [1] was 35.5 µM [rising, single point].

On to `COC(=O)/C(=C/c1c[nH]c2ccccc12)NC(C)=O`, for which the concentration at half-maximal activity (AC50) runs as follows: under setting [2], 31.6 µM [falling, single point]; under setting [1], 35.5 µM [falling, single point].

Regarding `O=C(Nc1nc(-c2cccs2)cs1)c1ccc(Cl)cc1`, the concentration at half-maximal activity (AC50) under setting [1] was 14.1 µM [rising, single point].

On to `O=C(NCc1cccn1Cc1ccccc1)Nc1cccc(C(F)(F)F)c1`, for which the half-maximal activity concentration (AC50) runs as follows: under setting [2], 35.5 µM [falling, single point]; under setting [1], 11.2 µM [falling, partial curve, poor fit].

`O=C(NCCCN=C1NS(=O)(=O)c2ccccc21)c1ccc(S(=O)(=O)N2CCCCC2)cc1`: the half-maximal activity concentration (AC50) under setting [1] is 15.8 µM [rising, single point].

As to `CCOc1cccc(C2c3[nH]c4ccccc4c3CCN2C(=O)c2ccccc2F)c1` (configuration not stated), the AC50 reads like this: under setting [2], 0.316 µM [rising, full curve, poor fit]; under setting [1], 20 µM [rising, partial curve, poor fit].

As for `Brc1ccc(Sc2cnc3ccccc3n2)cc1`, the concentration at half-maximal activity (AC50) under setting [2] was 3.55 µM [rising, partial curve, poor fit].

Turning to `COc1cc(OC)c(S(=O)(=O)NCc2cccnc2)cc1NC(C)=O`, the AC50 under setting [2] is 0.398 µM [falling, full curve, poor fit].

Regarding `Cc1ccc(NC(=O)c2ccccc2NS(=O)(=O)c2ccc(Cl)s2)cc1S(=O)(=O)N1CCOCC1`, the AC50 is, setting by setting: under setting [2], 3.16 µM [rising, full curve]; under setting [1], 3.16 µM [rising, full curve].

For the compound `CC(=O)Nc1c(I)c(NC(C)=O)c(I)c(C(=O)O)c1I`, the AC50 under setting [1] was 0.00447 µM [falling, full curve, poor fit].

Consider `O=C(NCc1cccn1Cc1ccccc1)Nc1ccc(Br)cc1F`, for which, under setting [2], the AC50 is 22.4 µM [falling, partial curve, poor fit].

As to `CCOC(=O)N1CCN(C(=O)c2cc3c(-c4ccc(Cl)cc4)nn(C)c3s2)CC1`, the half-maximal activity concentration (AC50) under setting [2] was 35.5 µM [rising, single point].

In the case of `O=C(NCc1ccc(Cl)cc1)c1ccc(-c2ccccc2C(F)(F)F)o1`, the AC50 is 20 µM [rising, single point] under setting [2] and 31.6 µM [rising, single point] under setting [1].

`N#CCCn1cc(C=O)c(-c2cccs2)n1`: under setting [1], the AC50 was 0.0141 µM [falling, full curve, poor fit].

With `COc1ccc(OC2C(=O)N(Cc3ccc4c(c3)OCO4)C2c2sccc2C)cc1` (configuration not stated), under setting [2], the concentration at half-maximal activity (AC50) was 12.6 µM [falling, partial curve].

On to `COC(=O)c1ccc(NC(=S)Nc2cccc(C)n2)cc1`, for which the concentration at half-maximal activity (AC50) under setting [2] is 35.5 µM [rising, partial curve, poor fit].

For the compound `CCC1CCCCN1C(=O)CSc1nnc(-c2cccc(Cl)c2)o1` (configuration not stated), the AC50 under setting [1] is 22.4 µM [rising, single point].

On to `O=C(Nc1ccncc1)Nc1ccccn1`, for which the half-maximal activity concentration (AC50) under setting [1] was 12.6 µM [falling, single point].

For `COc1cc2nc(N3CCN(C(=O)OCc4ccccc4)C(C(=O)NC(C)(C)C)C3)nc(N)c2cc1OC` (configuration not stated), under setting [2], the half-maximal activity concentration (AC50) is 12.6 µM [falling, partial curve].

On to `O=C(CN1C(=O)c2cccc3cccc1c23)N1CCc2ccccc2C1`, for which the AC50 under setting [1] was 3.16 µM [rising, partial curve].

Consider `COC(=O)c1c(NC(=O)CN(c2ccccc2)S(C)(=O)=O)sc2c1CCCC2`, for which the AC50 by setting is: under setting [2], 11.2 µM [rising, partial curve, poor fit]; under setting [1], 15.8 µM [rising, partial curve].

Take `CCN(CC)S(=O)(=O)c1ccc2c(c1)nc(CN(C)C(=O)Nc1ccc(Cl)cc1)n2C`: under setting [1], the AC50 was 10 µM [falling, partial curve, poor fit].

As for `COc1ccccc1N1CCN(C(=O)c2ccc(C(C)(C)C)cc2)CC1`, under setting [1], the half-maximal activity concentration (AC50) is 22.4 µM [rising, single point].

Turning to `O=[N+]([O-])c1ccccc1/C=N/n1c(-c2cccnc2)n[nH]c1=S`, the AC50 under setting [1] is 0.126 µM [rising, partial curve, poor fit].

As for `COc1cc(/C=C/C2=CC(C)(C)NC(=S)N2)cc(OC)c1OC`, under setting [2], the AC50 is 1 µM [falling, full curve, poor fit].

On to `CCCNC(=O)c1nc(C)n(-c2ccc([N+](=O)[O-])cc2)n1`, for which the half-maximal activity concentration (AC50) under setting [1] was 11.2 µM [falling, single point].

For the compound `CCOP(=O)(OCC)C(Nc1ccc([N+](=O)[O-])cc1)c1ccc(Cl)cc1` (configuration not stated), the concentration at half-maximal activity (AC50) under setting [2] is 8.91 µM [falling, partial curve, poor fit].

Turning to `O=S(=O)(c1ccc(NC2CCCc3ccccc32)nc1)N1CCOCC1` (configuration not stated), the concentration at half-maximal activity (AC50) under setting [1] was 31.6 µM [rising, single point].

Take `CCCN(CCC)S(=O)(=O)c1ccc2c(c1)N(CC(=O)NCc1ccc(F)cc1Cl)C(=O)CS2`: the half-maximal activity concentration (AC50) under setting [2] was 17.8 µM [falling, partial curve, poor fit].

`OCC1(Cc2ccccc2)CCCN(Cc2cnn(-c3ccccc3)c2)C1` (configuration not stated): the half-maximal activity concentration (AC50) by setting is: under setting [2], 15.8 µM [falling, partial curve]; under setting [1], 0.891 µM [falling, partial curve].

Turning to `COC(=O)c1ccc(CSc2ncnc3ccccc23)o1`, under setting [2], the half-maximal activity concentration (AC50) is 35.5 µM [falling, single point].

Regarding `NC(=S)n1[nH]c(-c2ccc([N+](=O)[O-])cc2)c(N=Nc2cccc([N+](=O)[O-])c2)c1=O`, the AC50 by setting is: under setting [2], 35.5 µM [falling, single point]; under setting [1], 12.6 µM [falling, single point].

`O=C(/C=C/c1ccc([N+](=O)[O-])cc1)NCc1cccs1`: the AC50 is, setting by setting: under setting [2], 11.2 µM [rising, partial curve]; under setting [1], 15.8 µM [rising, single point].

Turning to `CCCC(=O)Nc1ccc(N2CCN(C(=O)c3ccccc3C)CC2)cc1`, the AC50 under setting [2] was 25.1 µM [falling, single point].

As for `CN(C)C(=O)c1ccc(-c2ccc3ncnc(NCc4ccccc4)c3c2)cc1`, the AC50 under setting [2] was 15.8 µM [falling, single point].

With `CCOc1ccc(OCc2cccc(C(=O)Nc3ccc(CN4CCCCC4)cc3)c2)cc1`, the AC50 is, setting by setting: under setting [2], 14.1 µM [rising, single point]; under setting [1], 25.1 µM [rising, single point].
